Results are given in words; binding and its absence hold for the method and conditions named. Binding seen in cells or lysates may run through a third protein. Some entries that bind do so weakly or less than the wild type.

Protein sequences, listed by entry. Tags and fused reporters are not part of them. Lines headed by an entry give the natural chain unless they say otherwise; changes in a name come on top. Residues count along the entry.
UniProt P15056: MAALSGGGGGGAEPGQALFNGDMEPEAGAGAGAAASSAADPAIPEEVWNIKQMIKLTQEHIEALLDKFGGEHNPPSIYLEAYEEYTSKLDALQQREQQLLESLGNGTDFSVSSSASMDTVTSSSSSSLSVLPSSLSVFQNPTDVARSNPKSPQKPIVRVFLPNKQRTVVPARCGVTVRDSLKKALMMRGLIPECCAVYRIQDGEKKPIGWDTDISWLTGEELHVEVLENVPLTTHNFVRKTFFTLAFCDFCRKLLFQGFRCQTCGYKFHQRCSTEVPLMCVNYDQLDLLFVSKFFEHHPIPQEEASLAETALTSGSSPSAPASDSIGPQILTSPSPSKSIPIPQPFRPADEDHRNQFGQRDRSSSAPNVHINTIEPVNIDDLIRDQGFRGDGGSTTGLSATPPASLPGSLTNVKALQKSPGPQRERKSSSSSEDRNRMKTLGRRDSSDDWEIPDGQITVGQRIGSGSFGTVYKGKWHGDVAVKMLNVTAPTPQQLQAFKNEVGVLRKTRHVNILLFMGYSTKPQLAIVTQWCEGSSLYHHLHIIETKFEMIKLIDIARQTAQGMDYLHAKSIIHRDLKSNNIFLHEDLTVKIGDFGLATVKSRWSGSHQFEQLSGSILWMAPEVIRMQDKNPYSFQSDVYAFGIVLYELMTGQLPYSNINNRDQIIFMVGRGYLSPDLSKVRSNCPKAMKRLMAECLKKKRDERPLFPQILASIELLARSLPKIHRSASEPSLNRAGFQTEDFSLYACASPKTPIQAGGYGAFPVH
UniProt P09055, residues 21-798: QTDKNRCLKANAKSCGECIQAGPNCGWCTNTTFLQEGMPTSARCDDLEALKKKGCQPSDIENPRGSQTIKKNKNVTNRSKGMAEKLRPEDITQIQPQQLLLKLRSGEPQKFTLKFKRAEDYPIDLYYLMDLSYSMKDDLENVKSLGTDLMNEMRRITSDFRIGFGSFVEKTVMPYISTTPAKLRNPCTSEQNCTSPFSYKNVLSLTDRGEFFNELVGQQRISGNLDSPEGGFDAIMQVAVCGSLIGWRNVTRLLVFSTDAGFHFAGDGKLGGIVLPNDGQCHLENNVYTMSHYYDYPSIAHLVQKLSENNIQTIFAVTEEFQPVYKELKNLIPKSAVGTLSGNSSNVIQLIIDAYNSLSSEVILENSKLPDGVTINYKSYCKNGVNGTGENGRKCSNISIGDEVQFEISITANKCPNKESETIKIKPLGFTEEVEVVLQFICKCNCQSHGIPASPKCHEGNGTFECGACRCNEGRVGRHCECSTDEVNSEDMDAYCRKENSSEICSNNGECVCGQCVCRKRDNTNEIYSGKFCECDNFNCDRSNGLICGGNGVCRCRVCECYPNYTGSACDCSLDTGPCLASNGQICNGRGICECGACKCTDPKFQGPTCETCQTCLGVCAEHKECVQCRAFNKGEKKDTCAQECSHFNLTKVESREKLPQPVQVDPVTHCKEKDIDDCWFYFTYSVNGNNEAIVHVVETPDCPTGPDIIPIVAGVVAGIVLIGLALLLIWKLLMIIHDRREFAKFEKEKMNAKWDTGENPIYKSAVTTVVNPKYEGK

Consider 4 molecules from article PMC6925586.

Assay [1] has as its target B-Raf S446D (phosphomimetic, active form) (UniProt P15056). Nature of the assay: pull-down; His-pull down from lysates of MCF-7 cells transfected with His6-tagged constructs; non-mutated Raf kinases phosphatase treated; bait not stated.
A further assay deals with T1, NLRP7 (UniProt Q8WX94).
T1 sequence: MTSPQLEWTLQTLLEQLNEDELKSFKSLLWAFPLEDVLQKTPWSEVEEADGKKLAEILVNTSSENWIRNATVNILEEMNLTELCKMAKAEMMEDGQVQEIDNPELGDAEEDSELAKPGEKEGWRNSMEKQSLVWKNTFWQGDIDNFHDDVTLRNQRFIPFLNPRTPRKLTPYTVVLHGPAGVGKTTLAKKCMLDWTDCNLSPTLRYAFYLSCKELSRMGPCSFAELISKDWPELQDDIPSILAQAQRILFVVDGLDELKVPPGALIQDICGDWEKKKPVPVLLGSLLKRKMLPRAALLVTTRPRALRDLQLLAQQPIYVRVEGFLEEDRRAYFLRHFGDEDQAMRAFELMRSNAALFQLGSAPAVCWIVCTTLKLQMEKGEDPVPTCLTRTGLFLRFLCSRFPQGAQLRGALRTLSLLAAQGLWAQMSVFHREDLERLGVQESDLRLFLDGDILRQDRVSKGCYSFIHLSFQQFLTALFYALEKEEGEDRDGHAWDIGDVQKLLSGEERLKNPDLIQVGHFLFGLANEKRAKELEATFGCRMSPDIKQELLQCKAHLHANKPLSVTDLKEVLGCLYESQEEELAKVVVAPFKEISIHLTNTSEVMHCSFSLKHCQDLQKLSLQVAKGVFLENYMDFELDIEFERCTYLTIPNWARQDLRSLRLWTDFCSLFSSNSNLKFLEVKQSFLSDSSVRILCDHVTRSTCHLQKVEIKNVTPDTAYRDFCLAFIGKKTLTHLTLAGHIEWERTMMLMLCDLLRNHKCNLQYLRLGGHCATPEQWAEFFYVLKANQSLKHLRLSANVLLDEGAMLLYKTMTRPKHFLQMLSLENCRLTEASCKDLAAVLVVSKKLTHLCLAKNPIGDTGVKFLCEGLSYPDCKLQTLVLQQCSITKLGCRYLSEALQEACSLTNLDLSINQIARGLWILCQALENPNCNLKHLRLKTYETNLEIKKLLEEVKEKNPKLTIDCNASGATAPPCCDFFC
Briefly: co-IP; Hec1a endometrial cancer cells.

In assay [2] the target is integrin β-1 (mouse (endogenous in Swiss 3T3)) (UniProt P09055). Briefly: co-IP; Swiss 3T3 cells induced to overexpress TG2, treated with the NO donor SNAP for 48 hours; with SNAP less TG2 complex with ITGβ-1 and SDC-4, more with PDGFR-β.
Assay [3] deals with T2, syndecan-4 (mouse (endogenous in Swiss 3T3)) (UniProt O35988).
T2 sequence: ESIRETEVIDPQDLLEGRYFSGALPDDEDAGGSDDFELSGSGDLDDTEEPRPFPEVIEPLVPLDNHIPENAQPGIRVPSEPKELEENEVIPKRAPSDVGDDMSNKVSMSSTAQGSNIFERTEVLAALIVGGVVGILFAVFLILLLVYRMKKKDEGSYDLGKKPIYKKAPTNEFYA
The assay is described as above.

B1: BAG-1L (large isoform of Bcl-2 associated athanogene 1) (protein, UniProt Q99933-1 1-345)
chain: MAQRGGARRPRGDRERLGSRLRALRPGREPRQSEPPAQRGPPPSGRPPARSTASGHDRPTRGAAAGARRPRMKKKTRRRSTRSEELTRSEELTLSEEATWSEEATQSEEATQGEEMNRSQEVTRDEESTRSEEVTREEMAAAGLTVTVTHSNEKHDLHVTSQQGSSEPVVQDLAQVVEEVIGVPQSFQKLIFKGKSLKEMETPLSALGIQDGCRVMLIGKKNSPQEEVELKKLKHLEKSVEKIADQLEELNKELTGIQQGFLPKDLQAEALCKLDRRVKATIEQFMKILEEIDTLILPENFKDSRLKRKGLVKKVQAFLAECDTVEQNICQETERLQSTNFALAE
Consider B1, for which the binding result in assay [1] is on record as “binds”.

B2: BRAT1 (protein, UniProt Q6PJG6 1-821)
chain: MDPECAQLLPALCAVLVDPRQPVADDTCLEKLLDWFKTVTEGESSVVLLQEHPCLVELLSHVLKVQDLSSGVLSFSLRLAGTFAAQENCFQYLQQGELLPGLFGEPGPLGRATWAVPTVRSGWIQGLRSLAQHPSALRFLADHGAVDTIFSLQGDSSLFVASAASQLLVHVLALSMRGGAEGQPCLPGGDWPACAQKIMDHVEESLCSAATPKVTQALNVLTTTFGRCQSPWTEALWVRLSPRVACLLERDPIPAAHSFVDLLLCVARSPVFSSSDGSLWETVARALSCLGPTHMGPLALGILKLEHCPQALRTQAFQVLLQPLACVLKATVQAPGPPGLLDGTADDATTVDTLLASKSSCAGLLCRTLAHLEELQPLPQRPSPWPQASLLGATVTVLRLCDGSAAPASSVGGHLCGTLAGCVRVQRAALDFLGTLSQGTGPQELVTQALAVLLECLESPGSSPTVLKKAFQATLRWLLSSPKTPGCSDLGPLIPQFLRELFPVLQKRLCHPCWEVRDSALEFLTQLSRHWGGQADFRCALLASEVPQLALQLLQDPESYVRASAVTAMGQLSSQGLHAPTSPEHAEARQSLFLELLHILSVDSEGFPRRAVMQVFTEWLRDGHADAAQDTEQFVATVLQAASRDLDWEVRAQGLELALVFLGQTLGPPRTHCPYAVALPEVAPAQPLTEALRALCHVGLFDFAFCALFDCDRPVAQKSCDLLLFLRDKIASYSSLREARGSPNTASAEATLPRWRAGEQAQPPGDQEPEAVLAMLRSLDLEGLRSTLAESSDHVEKSPQSLLQDMLATGGFLQGDEADCY
With B2, the binding entry in the assay with NLRP7 is “binds”.

B3: tissue transglutaminase (TG2), overexpressed in induced Swiss 3T3 cells (enzyme, UniProt P21980 1-687)
chain: MAEELVLERCDLELETNGRDHHTADLCREKLVVRRGQPFWLTLHFEGRNYEASVDSLTFSVVTGPAPSQEAGTKARFPLRDAVEEGDWTATVVDQQDCTLSLQLTTPANAPIGLYRLSLEASTGYQGSSFVLGHFILLFNAWCPADAVYLDSEEERQEYVLTQQGFIYQGSAKFIKNIPWNFGQFEDGILDICLILLDVNPKFLKNAGRDCSRRSSPVYVGRVVSGMVNCNDDQGVLLGRWDNNYGDGVSPMSWIGSVDILRRWKNHGCQRVKYGQCWVFAAVACTVLRCLGIPTRVVTNYNSAHDQNSNLLIEYFRNEFGEIQGDKSEMIWNFHCWVESWMTRPDLQPGYEGWQALDPTPQEKSEGTYCCGPVPVRAIKEGDLSTKYDAPFVFAEVNADVVDWIQQDDGSVHKSINRSLIVGLKISTKSVGRDEREDITHTYKYPEGSSEEREAFTRANHLNKLAEKEETGMAMRIRVGQSMNMGSDFDVFAHITNNTAEEYVCRLLLCARTVSYNGILGPECGTKYLLNLNLEPFSEKSVPLCILYEKYRDCLTESNLIKVRALLVEPVINSYLLAERDLYLENPEIKIRILGEPKQKRKLVAEVSLQNPLPVALEGCTFTVEGAGLTEEQKTVEIPDPVEAGEEVKVRMDLLPLHMGLHKLVVNFESDKLKAVKGFRNVIIGPA
As for B3, the binding entry in assay [2] and in assay [3] was “binds” throughout.

B4: RalB (protein, UniProt P11234 1-206)
chain: MAANKSKGQSSLALHKVIMVGSGGVGKSALTLQFMYDEFVEDYEPTKADSYRKKVVLDGEEVQIDILDTAGQEDYAAIRDNYFRSGEGFLLVFSITEHESFTATAEFREQILRVKAEEDKIPLLVVGNKSDLEERRQVPVEEARSKAEEWGVQYVETSAKTRANVDKVFFDLMREIRTKKMSENKDKNGKKSSKNKKSFKERCCLL
For the molecule B4, in the assay with NLRP7, the binding entry was “binds”.
